No constants are given. Whether binding was seen depends on the method and setting.
Target: MRG15 MRG domain, amino acids 155-323 (UniProt Q9UBU8)
Assay: fluorescence polarisation; fluorescence anisotropy competition; mutant PALB2 597-630 peptides serially diluted from 10 uM to 0.6 nM against a preformed complex of MRG15 and FAM-PALB2; 25 mM HEPES pH 8.0, 1 mM TCEP, 10% DMSO, 200 mM NaCl; room temperature; both purified

Sequences of proteins named here, by UniProt entry; tags and fusion partners are left off. Residues count along the entry.
UniProt Q9UBU8, residues 194-362: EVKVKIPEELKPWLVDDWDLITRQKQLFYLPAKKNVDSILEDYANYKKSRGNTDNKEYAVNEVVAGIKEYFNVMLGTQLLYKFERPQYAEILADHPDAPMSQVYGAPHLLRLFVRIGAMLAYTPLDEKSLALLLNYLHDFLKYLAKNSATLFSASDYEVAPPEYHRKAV

Row | Binder | binding
1 | MLSLKQLLSFLSITDAQLPDEDFGPLKLEKVKSC (peptide, UniProt Q86YC2 597-630) [PALB2^597-630 peptide with Phe612 substituted by alanine] | no binding (tested: 10 µM)
2 | MLSLKQLLSFLSITDFQAPDEDFGPLKLEKVKSC (peptide, UniProt Q86YC2 597-630) [PALB2^597-630 peptide with Leu614 substituted by alanine] | no binding (tested: 10 µM)
3 | MLSLKQLLSFLSITDFQLPDEDAGPLKLEKVKSC (peptide, UniProt Q86YC2 597-630) [PALB2^597-630 peptide with Phe619 substituted by alanine] | no binding (tested: 10 µM)
